# Data published in doi:10.1101/2025.05.07.652675.
# Protein sequences, listed by entry. Tags and fused reporters are not part of them. Residues count along the entry.
# UniProt P0A9A6, 316-370: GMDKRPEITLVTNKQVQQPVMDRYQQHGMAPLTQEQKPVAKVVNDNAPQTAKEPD
# UniProt P0A9A6, 316-383: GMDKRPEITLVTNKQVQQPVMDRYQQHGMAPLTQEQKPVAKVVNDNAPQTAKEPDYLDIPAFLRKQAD
# UniProt P75862, whole entry: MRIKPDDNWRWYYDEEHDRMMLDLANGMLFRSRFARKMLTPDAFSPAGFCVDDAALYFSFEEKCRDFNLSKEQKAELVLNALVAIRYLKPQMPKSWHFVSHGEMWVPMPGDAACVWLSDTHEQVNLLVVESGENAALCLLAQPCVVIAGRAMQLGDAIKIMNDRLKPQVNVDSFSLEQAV
# Results are given in words; binding and its absence hold for the method and conditions named. Some binding calls cover weakened binding; strength is not graded here.
# Key:
# [1] = biological target: SUMO-FtsZ^316-370 (E. coli) (UniProt P0A9A6); test: BLI
# [2] = biological target: FtsZ^316-370 (bacterial two-hybrid fusion) (E. coli) (UniProt P0A9A6); test: two-hybrid
# [3] = biological target: FtsZ^316-383 (bacterial two-hybrid fusion) (E. coli) (UniProt P0A9A6); test: two-hybrid
binding [1],Substance,binding [2],binding [3]
no binding,ZapC (untagged) (from UniProt P75862 1-180),–,–
–,ZapC (bacterial two-hybrid fusion) (from UniProt P75862 1-180),no binding,binds
